Test results taken from the RNAGym collection of RNA variant scans (doi:10.1126/science.aae0568).
Variants at the background level are over-represented here.

B1: tRNA (parent)
chain: GUUCCGUUGGCGUAAUGGUAACGCGUCUCCCUCCUAAGGAGAAGACUGCGGGUUCGAGUCCCGUACGGAACG

Variants of: B1
Experiment: yeast fitness relative to wild type (ratio to wild type); higher = fitter; tRNA-Arg(CCU), competitive growth, 37 C, YPD
Procedure, shortened: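 Changes in genotype frequencies gave Darwinian fitness relative to wild type. Frequencies were read by 100-nucleotide paired-end sequencing of gene amplicons before and after pooled Saccharomyces cerevisiae strains, carrying tRNA-Arg(CCU) gene variants at the native locus, were competed in YPD at 37°C for 24 hours in six replicates. A genotype was kept only with ≥ 100 starting reads, and estimates < 0.5 were set to 0.5.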

Point of comparison: GUUCAGUUGGCGUAAUGGUAUCGCGUCUCCCUCCUAAGGAGAAGACUGCGGGUUAGAGUCCCGUACGGAACG, yeast fitness 0.572. Against it:
- GUUCCGUUGGCAUAAUGGUAACGGGUCUCCCUCCUAAGGCGACGAUUGCGGGUUCGAGUCCCGCACGGAGCG — lower, ≤ 0.5
- GUUCUGUUGGCGUAAUGGUAACGGGUCUCCCUCCUAAGGCGAAGUCUGCGGGUUCGAGUCCCGUACGGAACG — lower, ≤ 0.5
- GUUCCGUUGGCGCAAUGGUAACGCGUCCCCCUCCUAAGGAGAAGACUGCGGGUUAGAGUCCCGUACGGAACG — lower, ≤ 0.5
- GUUCCGUUGGCGUAAUGGUAACGAGUCUCCCUCCUAAGGAGAAGACUCCGGGUUCGAGUCCCGUACGGAACG — higher, 0.621
- GUUCCGUUGACGUAAUGGUGACGCGUCUCCCUCCUACGAAGAAGACUGCGGGUUCGAGUCCCGUUCGGACCG — lower, ≤ 0.5
- GUUACGUUGGCGUAAUGGUAAAGCGUCUCCCUCCUAAGGAGAAGACUGCGGGUUGGCGUCCCGUACGGAACG — lower, ≤ 0.5
- GUUCCGUUGGCGUAAUGGUAACGCGUCUCCCUCCUAAGGAGACGUAUGAGGGUUCGAGUCCCGUACGGAACG — lower, ≤ 0.5
- GUUCCGUUGGCGUAAUGGUAACGCGUCUUCCUCCUAACGAGAAGGCUGCGCGUUCGAGUCCCGUACGGAACG — lower, ≤ 0.5
- GCUCCGUGGGCGUAAUGGUAACGCGUCUCCGUCCUAAGGAGCAGACUGCGGGUUCAAGUCCCGUACGGAACG — lower, ≤ 0.5
- GUUCCGUUGGCGUACUGGUAACGCGUCUCACUCCUAAGGAGCAGACUGCGGGUUCGAGUCCCGUACGGAACG — lower, ≤ 0.5
- GUUCCGUUGGCGUAAUGGUAACGCGUCUCCCUCCUAAGGAGACGACUGCGGGUUCGAGUCCGAUAGGGGACG — lower, ≤ 0.5
- GUUCCGUUGGCGUAAUGGUGACGCGUCUCCCUCCUAAGGAGAAGACUGCGGGUUUGAGUCCCGUACGGAACG — higher, 0.82
- GUUCCGUUGGCGUAAUGGUAACGCGUCUCCCUCGUAAGGAGAAGACUGCGGGUUCGAGCCCCGUACGGAACG — higher, 0.602
- GUUCCGUUGGCGUAAUAGUAACGCGUCUCCCUCCUAAGGAGAAGACUGCGGGUUCGUGUCCCGUACGGAACG — higher, 0.644
- GUUACGUUCGGGUAAUGGUAACGCGUCUCCCUCCUAAGGAGAACACUGCGGGUUUGAGUCCCGUACGGAACG — lower, ≤ 0.5
- GUUCCGCUGGCGUAAUGGUAACGCGUCUCCCUCCUAUGGAGAAGACUGCGGGUUCGAGUCCCGUACGGACCG — lower, ≤ 0.5
- GUUCGGUUGGCGUAACGGUAAGGCGUCUCCCUCUUAAGGAGAAGACUGCGGGUUCGAGACCCGUACGGAACG — lower, ≤ 0.5
- GUUCGGUUGGCGUAAAGGGCACGCGUUUUUCUCCUAAGGAGAAGACUGCGGGUUCGAGUCCCGUACGGACCG — lower, ≤ 0.5
- GUUCCGUUGGCGCAAUGGUAACGCGUCUCCCUCCUAAGGAGAAGACUGGGGGUUCGAGACCCGUACGGAACG — lower, ≤ 0.5
- GUUCGGUUGGCGUAAUGGUAACGCGUCUCCCUCCUAAGGAGAAGACUGCGGGUUGGAAUCUCGUACGGAACG — lower, ≤ 0.5
- GUUCCGUUCGCGUAAUGGUGACGCGGCUCCCUCCUAAGGAGAAGACUGCGGGUUCGAGUCCCGUACGGAACG — lower, ≤ 0.5
- GUUCCGUUGGCGCAAUGGUAACGUGUCUCCCUCUUAAGGAGAAGACUGCGGGUUCGAGUCCCGUACGGCACG — lower, ≤ 0.5
- GUUCCGUUGGCCUAAUGGUAACGCGACUCCCUAGUAAGGAGAAGACUGCGGGUUCGAGUCCCGUUCGGAACG — lower, ≤ 0.5
- GAUCCGUUGGCGUAAUGGUAACGCGUCUCCCUUCUACGGAGAAGACUGCGGGUUUGAGUCCCGUACGGAACG — lower, ≤ 0.5
- GUUCCGUUGGCGUGAUGGUCACGCGUCUCCCUCCUAAGGCGAAGGAUGCGGGUUCGAGUCCCGUACGGAACG — lower, ≤ 0.5
- GUUCCGUUGGCGUAAUGGUAAAGCGUCUCCCUCCUAAGGAGAAGACUGCGGGAUCGAGUCCCGUACCGAACG — lower, ≤ 0.5
- GUUCCGUUGGCGUAACGGUAAGGCGUCUCCCUCUUAAGGAGAAGACUGCGGGUUCGAGACCCGUACGGAACG — lower, ≤ 0.5
- GUACGGUUGGCGUAAUGGUAUUGCGUCUCCCACCUAAGGAGAAGACUGGGGGUUCGAGUCCCGUACAGAACG — lower, ≤ 0.5
- GUACCGUUGGCGUAAUGGUAACGCGUCUCCCUCCCACGGAGAAGCCUGCGGGUUCGAGUCCCGUACGGAACG — lower, ≤ 0.5
- GUUCGGUUGCCGUAAUGGUAACGCGUCUCCCUCCUAAGGAGAAGACUGCGGGUUCGAGUCCCGUCCGGAACG — lower, ≤ 0.5
- GUUCCAUUCGCGUAGUGGUAACGCGUCUCCCGCCUAAGGAGAAGACUGCGGGUUCGAGUCCCGUACGGAACG — lower, ≤ 0.5
- GUUCCGUUGGCGUAAUGGUAACGCGUCUCCCUCCUACGGAGCAAACUGCGGGUACGAGUCCCGUACGGAACG — lower, ≤ 0.5
- GUUCCGUUGGCGUAAUGGUAACGCGUCUCACUCCUAAGGACAAGACUGCGGGUUCGAGUCCCCUACGGAACG — lower, ≤ 0.5
- GUUCCGUUGGCGUAAUGGUAACGCGUCUCCCUCCUUAGGAGAAGAUUCCGGGUUCGAGUCCCGUACGGAACG — lower, ≤ 0.5
- GUUCGGUUGGCGUAAUGGUAACGCGUCUCCCUCCCAAGGAGAACACUGCGGGUUCGAGUCCAGUACGCUACG — lower, ≤ 0.5
- GUUCCGUCGGCGUAAUGGUAACGCGUCUCCCUCCUAAGGAGAAGACUGCGCGUUCGAGGCCCGUACGGAACG — lower, ≤ 0.5
- GUUCGGUUCGCGUAAUGGUAACGCGUCUCCCUCCUAAGGAGAAGAGUGCGGGUUCGAGUCACGUACGGAACG — lower, ≤ 0.5
